Laboratory results: article PMC3708822
No constants are given. Whether binding was seen depends on the method and setting. Binding seen in cells or lysates may run through a third protein. Binding calls can cover weak binding; strength is not graded here. Tags and fused reporters may be left off the sequences shown.

Biological target: T1, GST-SAP18 (UniProt O00422)
T1 sequence: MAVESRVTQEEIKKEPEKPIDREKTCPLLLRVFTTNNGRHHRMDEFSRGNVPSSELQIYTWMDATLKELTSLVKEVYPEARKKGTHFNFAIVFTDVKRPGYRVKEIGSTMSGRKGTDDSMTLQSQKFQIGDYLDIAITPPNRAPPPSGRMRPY
Test: pull-down; 5 ug GST-tagged proteins on glutathione sepharose 4B beads incubated 1 hour at 4°C with normalized clarified bacterial lysates of 6His-IN in 20 mM HEPES-KOH pH 8.0, 5 mM DTT, 0.1% IGEPAL; washes with 200 mM NaCl, 0.5% IGEPAL; Western blot, densitometry relative to WT; only the target purified

His6-tagged WT IN (HIV-1)
binding: binds
